PubChem BioAssay AID1259308, NCATS | 2017
This is a random part of about 59,000 reagents tested. About 1,510 of them (2.6%) count as active. 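Calls use total luciferase alone and ignore viability, so some active siRNAs may act by altering cell number.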 Unmarked entries are inactive. The numbers tell different reagents against one gene apart. Not all columns of the deposit are shown.

Assay: 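Genes whose loss raises luciferase production in HEK293 cells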 (primary screen)
System: human HEK293 embryonic kidney cells stably expressing firefly luciferase (HEK-CMV-Luc2-Hygro)
Knock-down reagent: single siRNA against human genes, 0.8 pmol siRNA per well
Timing: 72 h
Detection: 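Reporter luminescence and viable-cell signal on separate replicate plates, given as percent of non-targeting control and median/MAD z-scores, plus per-cell luciferase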
Scale: total luciferase, z-score: higher = more reporter protein produced
Hit rule: 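An siRNA counts as active if its total luciferase robust z-score exceeds 3; genes with two or more such siRNAs out of three were retested with fresh siRNAs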
Calls: active = raised luciferase; inactive = no rise

total luciferase, z-score, by gene and reagent
GAS2L1: #1 -0.229; #2 -0.573; #3 0.391
SLC6A18: #1 0.958; #2 0.204; #3 0.317
KRTAP5-5: #1 5.67 (active); #2 0.255; #3 0.663
NFIC: #1 3; #2 0.132; #3 0.489
GNAT3: #1 1.71; #2 0.29; #3 -0.353
EPS8L1: #1 3.08 (active); #2 0.805; #3 -0.723
IL1A: #1 -0.181; #2 -0.489; #3 -0.314
NSUN3: #1 0.622; #2 -0.796; #3 0.983
GREM2: #1 0.247; #2 2.07; #3 -2.72

Records above whose target name starts with K or k:
total luciferase, z-score, by gene and reagent
KRTAP5-5: #1 5.67 (active); #2 0.255; #3 0.663

The listing continues.
total luciferase, z-score, by gene and reagent
KIAA1586: #1 0.115; #2 0.835; #3 -0.995
KDM4E: #1 2.88; #2 1.06; #3 1.45
HPS3: #1 1.01; #2 -0.806; #3 0.63
RBM6: #1 -0.47; #2 1.4; #3 -2
C16orf46: #1 1.2; #2 -0.068; #3 0.845
USF2: #1 -1.65; #2 -0.593; #3 0.611
PPP1R11: #1 -1.53; #2 1.4; #3 1.47
GLP1R: #1 -0.0707; #2 -0.422; #3 -0.806
MMACHC: #1 0.153; #2 0.205; #3 -0.518
BATF2: #1 -1.13; #2 2.28; #3 0.00699
